Drawing on patent US6342201B1 (Institut for Diagnostikforschung GmbH an der Freien …, priority 1994, dated 2002), this text covers conjugation yield for five substances.

The series is described as follows: general procedure: Fmoc solid-phase peptide synthesis. The note with it: conjugation step, theoretical.
“HOOC—CH2—S—CH2—CONH-Cys-(D-Trp)-Leu-Asp-Ile-Ile-Trp” came in with a conjugation yield of 36.4% Th.

As for “HOOC—CH2—S—CH2—CONH-Cys-His-Leu-Asp-Ile-Ile-Trp”, the conjugation yield came out at 26.1% Th.

Turning to “HOOC—CH2—S—CH2—CONH-Cys-Phe-(D-Trp)-Leu-Asp-Ile-Ile-Trp”, the conjugation yield was found to be 39.5% Th.

Regarding “HS—CH2—CONH-Gly-Gly-Asp-(D-Trp)-Leu-Asp-Ile-Ile-Trp”, the conjugation yield came out at 40.3% Th.

With “HS—CH2—CONH-Gly-Gly-Asp-Phe-(D-Trp)-Leu-Asp-Ile-Ile-Trp”, the conjugation yield came to 43.4% Th.
